The target of assay [1] is T1, ubiquitin carboxyl-terminal hydrolase isozyme L3 (mouse (endogenous in BMSCs)) (UniProt Q9JKB1).
T1 sequence: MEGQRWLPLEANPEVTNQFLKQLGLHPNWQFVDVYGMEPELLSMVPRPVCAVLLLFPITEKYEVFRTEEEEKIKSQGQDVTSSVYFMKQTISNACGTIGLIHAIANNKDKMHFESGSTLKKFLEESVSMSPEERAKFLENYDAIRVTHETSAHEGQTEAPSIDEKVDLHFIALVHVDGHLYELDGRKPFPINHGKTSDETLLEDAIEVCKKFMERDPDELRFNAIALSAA
The experiment in a line: co-IP; BMSC lysate in IP buffer, 1 mg total protein pre-cleared with protein-G agarose; 2 ug anti-UCHL3 or anti-SMAD1 antibody (IgG as negative control), 4 °C 2 h, then protein-G agarose overnight at 4 °C; Western blotting of the endogenous partner.

Amino acid sequences for entries named in this document (tags omitted).
UniProt P70340: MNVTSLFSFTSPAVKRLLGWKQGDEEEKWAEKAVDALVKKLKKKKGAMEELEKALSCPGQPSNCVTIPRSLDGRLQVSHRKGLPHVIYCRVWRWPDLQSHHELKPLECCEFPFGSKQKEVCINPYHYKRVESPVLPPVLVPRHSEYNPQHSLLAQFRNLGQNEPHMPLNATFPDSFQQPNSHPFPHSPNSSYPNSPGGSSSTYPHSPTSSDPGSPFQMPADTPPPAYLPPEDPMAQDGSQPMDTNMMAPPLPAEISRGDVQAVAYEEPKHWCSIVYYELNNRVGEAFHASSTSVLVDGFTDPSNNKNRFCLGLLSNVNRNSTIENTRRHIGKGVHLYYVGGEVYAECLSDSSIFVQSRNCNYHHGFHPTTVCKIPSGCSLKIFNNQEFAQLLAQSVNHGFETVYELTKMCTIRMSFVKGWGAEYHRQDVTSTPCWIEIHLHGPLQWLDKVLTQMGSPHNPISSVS

Assay [2] has as its target mothers against decapentaplegic homologue 1 (mouse (endogenous in BMSCs)) (UniProt P70340). The description is as above.

These are yes or no findings as the source states them, for the method shown. Binding seen in cells or lysates may run through a third protein. Some binding calls cover weakened binding; strength is not graded here.

On to “mothers against decapentaplegic homologue 1 (from UniProt P70340 1-465)”, for which, in assay [1], the binding entry is given as “binds”.

B1: ubiquitin carboxyl-terminal hydrolase isozyme L3 (enzyme, UniProt Q9JKB1 1-230)
chain: T1 sequence
Consider B1, for which the binding entry in assay [2] is “binds”.

For the origin of these results see publication PMC10012474.
